According to patent publication US20240254096A1, “ULTRAVIOLET AND VISIBLE RADIATION ABSORBING COMPOUNDS” (ELKIMIA INC., priority 2021, published 2024):

Experiment: Color change (yellow index, ΔE) of extruded TPU fabrics after aging

CCOC(=O)CNC1=C/C(=N/c2ccc(F)cc2)CC(C)(C)C1 [Formula 38]
Yellow index after aging (Compound 38 content 0.56): 9.23 | Yellow index initial (Compound 38 content 0.56): −0.10 | ΔE after aging (Compound 38 content 0.56): 5.72 | ΔE/aged ref (0) (Compound 38 content 0.56): 0.42 | ΔE/initial ref (0) (Compound 38 content 0.56): 0.32 | Yellow index after aging (Compound 38 content 1.0): 9.7 | Yellow index initial (Compound 38 content 1.0): 1.97 | ΔE after aging (Compound 38 content 1.0): 5.30 | ΔE/aged ref (0) (Compound 38 content 1.0): 0.80 | ΔE/initial ref (0) (Compound 38 content 1.0): 3.62 | Yellow index after aging (Compound 38 content 2.0): 7.02 | Yellow index initial (Compound 38 content 2.0): 1.26 | ΔE after aging (Compound 38 content 2.0): 3.54 | ΔE/aged ref (0) (Compound 38 content 2.0): 0.91 | ΔE/initial ref (0) (Compound 38 content 2.0): 1.21
